Results are given in words; binding and its absence hold for the method and conditions named. Some results given as binding are weak or reduced against the parent protein; the word gives no strength.
B1: Cyclin K cyclin box domains (residues 1–267) (domain or fragment, UniProt O75909 1-267)
chain: MKENKENSSPSVTSANLDHTKPCWYWDKKDLAHTPSQLEGLDPATEARYRREGARFIFDVGTRLGLHYDTLATGIIYFHRFYMFHSFKQFPRYVTGACCLFLAGKVEETPKKCKDIIKTARSLLNDVQFGQFGDDPKEEVMVLERILLQTIKFDLQVEHPYQFLLKYAKQLKGDKNKIQKLVQMAWTFVNDSLCTTLSLQWEPEIIAVAVMYLAGRLCKFEIQEWTSKPMYRRWWEQFVQDVPVDVLEDICHQILDLYSQGKQQMPH

By UniProt entry, the sequences of proteins in these tests, tags left out. Residues count along the entry.
Cdk12 kinase domain (residues 714–1063) (Q9NYV4, residues 714-1063): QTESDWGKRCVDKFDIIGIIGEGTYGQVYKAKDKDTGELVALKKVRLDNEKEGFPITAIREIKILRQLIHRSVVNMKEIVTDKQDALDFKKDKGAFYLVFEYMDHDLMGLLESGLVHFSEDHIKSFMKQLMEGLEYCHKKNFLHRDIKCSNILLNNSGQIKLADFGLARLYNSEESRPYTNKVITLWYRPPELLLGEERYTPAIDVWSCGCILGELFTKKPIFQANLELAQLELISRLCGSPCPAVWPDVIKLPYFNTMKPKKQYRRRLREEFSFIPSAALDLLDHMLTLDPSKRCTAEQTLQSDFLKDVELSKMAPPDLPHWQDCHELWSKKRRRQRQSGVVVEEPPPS
GST-CDK12 kinase domain (a.a. 715–1050) (Q9NYV4, residues 715-1050): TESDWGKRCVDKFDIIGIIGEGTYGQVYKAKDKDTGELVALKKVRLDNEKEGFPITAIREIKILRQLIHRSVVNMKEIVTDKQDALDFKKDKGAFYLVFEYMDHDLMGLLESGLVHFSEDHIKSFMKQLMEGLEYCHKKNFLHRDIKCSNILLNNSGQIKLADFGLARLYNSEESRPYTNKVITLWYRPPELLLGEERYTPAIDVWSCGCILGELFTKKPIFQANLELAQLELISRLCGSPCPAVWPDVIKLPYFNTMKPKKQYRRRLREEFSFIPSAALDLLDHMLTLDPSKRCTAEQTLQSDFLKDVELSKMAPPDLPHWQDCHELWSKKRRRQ

Columns and labels:
[1] = biological target: GST-CDK12 kinase domain (a.a. 715–1050) (human) (UniProt Q9NYV4); experiment: co-purification (glutathione affinity, then SEC); GST-CDK12 and cyclin K co-expressed in SF9 with CAK1; Glutathione Sepharose 4B, TEV digestion, Superdex 75 26/60 in 50 mM HEPES pH 7.4, 200 mM NaCl, 2.5% glycerol, 0.25 mM TCEP
[2] = biological target: Cdk12 kinase domain (residues 714–1063) (human) (UniProt Q9NYV4); experiment: crystal structure; 80 μM Cdk12/CycK, 70 μM DDB1ΔB, 5 mM SR-4835; hanging drop, 10 °C, 1 M potassium citrate, 15% glycerol; 3.9 Å, space group P3(1)21; both purified

Molecule	binding [1]	binding [2]
Cyclin K cyclin box (a.a. 11–267), untagged (from UniProt O75909 11-267) (domain or fragment)	binds	
B1		binds
